Like-named read-outs stand apart in the source and are kept apart here. No constants are given. Whether binding was seen depends on the method and setting. Some results given as binding are weak or reduced against the parent protein; the word gives no strength.

Protein sequences, listed by entry. Tags and fused reporters are not part of them.
UniProt O75175: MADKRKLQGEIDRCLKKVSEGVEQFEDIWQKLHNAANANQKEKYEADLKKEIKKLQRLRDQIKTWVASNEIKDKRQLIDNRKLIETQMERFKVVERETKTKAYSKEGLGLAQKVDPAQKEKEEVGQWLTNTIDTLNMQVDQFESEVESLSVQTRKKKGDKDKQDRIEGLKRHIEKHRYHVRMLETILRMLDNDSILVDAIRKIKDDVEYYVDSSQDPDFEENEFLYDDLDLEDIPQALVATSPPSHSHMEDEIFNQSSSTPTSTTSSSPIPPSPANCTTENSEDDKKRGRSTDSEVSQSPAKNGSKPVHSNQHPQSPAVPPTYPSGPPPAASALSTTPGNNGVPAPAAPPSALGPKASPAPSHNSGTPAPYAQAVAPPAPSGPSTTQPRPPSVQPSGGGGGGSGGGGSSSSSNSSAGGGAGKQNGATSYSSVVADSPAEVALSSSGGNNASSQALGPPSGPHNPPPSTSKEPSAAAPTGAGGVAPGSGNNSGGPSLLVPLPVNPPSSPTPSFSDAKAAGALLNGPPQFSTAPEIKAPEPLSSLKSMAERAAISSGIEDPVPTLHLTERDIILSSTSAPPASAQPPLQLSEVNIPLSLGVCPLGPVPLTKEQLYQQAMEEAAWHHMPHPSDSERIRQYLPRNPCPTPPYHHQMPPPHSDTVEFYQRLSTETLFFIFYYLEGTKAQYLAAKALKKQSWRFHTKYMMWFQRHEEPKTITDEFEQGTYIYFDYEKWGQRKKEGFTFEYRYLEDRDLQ
UniProt Q9NZN8: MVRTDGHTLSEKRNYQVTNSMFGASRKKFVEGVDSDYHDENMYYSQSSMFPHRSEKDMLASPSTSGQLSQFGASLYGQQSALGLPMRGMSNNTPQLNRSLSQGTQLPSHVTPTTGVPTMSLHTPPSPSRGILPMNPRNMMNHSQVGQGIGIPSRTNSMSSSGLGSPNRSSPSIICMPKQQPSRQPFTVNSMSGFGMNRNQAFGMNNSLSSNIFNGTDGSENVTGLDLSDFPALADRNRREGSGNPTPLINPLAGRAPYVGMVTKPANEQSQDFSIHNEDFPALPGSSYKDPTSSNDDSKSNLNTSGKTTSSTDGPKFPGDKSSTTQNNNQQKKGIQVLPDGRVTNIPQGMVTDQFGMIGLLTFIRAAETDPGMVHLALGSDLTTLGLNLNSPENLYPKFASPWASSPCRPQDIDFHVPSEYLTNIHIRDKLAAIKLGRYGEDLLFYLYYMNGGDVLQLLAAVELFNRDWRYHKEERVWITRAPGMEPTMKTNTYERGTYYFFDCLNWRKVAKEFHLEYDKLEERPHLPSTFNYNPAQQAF
UniProt Q92600: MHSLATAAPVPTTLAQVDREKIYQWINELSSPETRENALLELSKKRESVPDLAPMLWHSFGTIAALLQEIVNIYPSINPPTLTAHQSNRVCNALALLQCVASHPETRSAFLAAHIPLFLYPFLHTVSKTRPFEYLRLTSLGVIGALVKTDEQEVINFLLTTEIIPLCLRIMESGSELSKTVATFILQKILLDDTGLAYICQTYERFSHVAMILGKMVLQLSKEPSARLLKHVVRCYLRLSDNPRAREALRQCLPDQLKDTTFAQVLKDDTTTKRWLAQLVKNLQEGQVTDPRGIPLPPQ

Experiment in all cases: cross-linking
Test [1] deals with CNOT3, subunit of the recombinant human CCR4-NOT complex (human) (UniProt O75175).
Test [2] has as its target CNOT2, subunit of the recombinant human CCR4-NOT complex (human) (UniProt Q9NZN8).
Test [3] has the same target. This is another data set of the same source.

For the substance “CNOT9, subunit of the recombinant human CCR4-NOT complex (from UniProt Q92600 1-299)”, the binding entry in test [1] is on record as “binds”.

For “CNOT3, subunit of the recombinant human CCR4-NOT complex (from UniProt O75175 1-753)”, the binding result in test [2] and in test [3] was “binds” in each case.

These data come from publication doi:10.1101/2024.09.02.610668 (bioRxiv, 2024).
